These are yes or no findings as the source states them, for the method shown. Binding seen in cells or lysates may run through a third protein. A yes stands for co-enrichment or nearness to the bait. Other partners may have been found.

Amino acid sequences for entries named in this document (tags omitted).
UniProt O14929: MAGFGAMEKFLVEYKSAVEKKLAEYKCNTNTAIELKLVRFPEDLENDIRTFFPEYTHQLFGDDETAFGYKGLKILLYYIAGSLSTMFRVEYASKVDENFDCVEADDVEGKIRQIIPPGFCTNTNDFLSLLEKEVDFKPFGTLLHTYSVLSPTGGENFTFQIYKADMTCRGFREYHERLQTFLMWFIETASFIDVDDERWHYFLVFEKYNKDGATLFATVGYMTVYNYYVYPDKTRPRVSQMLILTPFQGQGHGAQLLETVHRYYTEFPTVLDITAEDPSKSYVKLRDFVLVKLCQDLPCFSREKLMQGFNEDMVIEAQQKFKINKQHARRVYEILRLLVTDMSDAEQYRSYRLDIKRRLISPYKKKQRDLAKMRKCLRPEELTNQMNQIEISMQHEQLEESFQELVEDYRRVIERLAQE
UniProt P27694: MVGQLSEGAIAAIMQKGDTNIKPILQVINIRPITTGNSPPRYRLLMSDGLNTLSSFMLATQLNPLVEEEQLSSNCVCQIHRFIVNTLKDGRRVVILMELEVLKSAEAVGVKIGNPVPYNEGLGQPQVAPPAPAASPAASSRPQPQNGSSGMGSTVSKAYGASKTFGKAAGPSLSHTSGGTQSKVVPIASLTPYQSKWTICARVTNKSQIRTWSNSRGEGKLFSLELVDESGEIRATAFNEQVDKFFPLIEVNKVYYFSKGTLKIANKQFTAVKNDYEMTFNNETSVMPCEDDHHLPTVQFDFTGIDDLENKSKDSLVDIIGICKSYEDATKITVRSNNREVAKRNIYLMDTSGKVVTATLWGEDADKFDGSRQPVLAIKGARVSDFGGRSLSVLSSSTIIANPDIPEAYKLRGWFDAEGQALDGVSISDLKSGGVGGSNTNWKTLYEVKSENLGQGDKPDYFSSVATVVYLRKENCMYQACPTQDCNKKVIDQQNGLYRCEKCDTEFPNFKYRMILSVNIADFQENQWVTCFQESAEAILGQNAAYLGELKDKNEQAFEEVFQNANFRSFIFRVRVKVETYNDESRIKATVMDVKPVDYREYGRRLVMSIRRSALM
UniProt O60934: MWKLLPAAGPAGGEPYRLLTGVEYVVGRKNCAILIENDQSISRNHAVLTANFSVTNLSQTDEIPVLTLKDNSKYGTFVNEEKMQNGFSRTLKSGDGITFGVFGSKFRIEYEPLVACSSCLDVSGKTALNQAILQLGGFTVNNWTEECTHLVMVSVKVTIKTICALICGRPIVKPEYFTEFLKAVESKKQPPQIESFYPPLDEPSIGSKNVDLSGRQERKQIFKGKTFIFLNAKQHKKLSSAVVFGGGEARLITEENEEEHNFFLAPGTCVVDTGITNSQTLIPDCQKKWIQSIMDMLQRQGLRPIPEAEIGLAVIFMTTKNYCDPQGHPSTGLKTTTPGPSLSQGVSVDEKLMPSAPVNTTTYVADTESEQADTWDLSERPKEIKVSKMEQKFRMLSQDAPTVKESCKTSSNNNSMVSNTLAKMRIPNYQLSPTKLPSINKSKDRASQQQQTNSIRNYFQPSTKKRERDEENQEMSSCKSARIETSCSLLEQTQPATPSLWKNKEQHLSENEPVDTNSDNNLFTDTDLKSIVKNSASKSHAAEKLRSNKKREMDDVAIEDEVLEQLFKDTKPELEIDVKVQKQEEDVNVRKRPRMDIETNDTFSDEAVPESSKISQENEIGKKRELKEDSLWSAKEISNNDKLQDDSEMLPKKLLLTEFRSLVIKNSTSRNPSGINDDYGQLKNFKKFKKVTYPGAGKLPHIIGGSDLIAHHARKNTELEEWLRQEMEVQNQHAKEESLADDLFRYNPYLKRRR

Consider three molecules from paper PMC12639135.

The target of the assay is Flag-tagged HAT1 (UniProt O14929). The experiment in a line: affinity purification with mass spectrometry; Flag beads pulldown of HAT1, high-resolution LC-MS/MS; cell line not stated.

As for “RPA1 (endogenous) (from UniProt P27694 1-616)”, the binding entry is given as “binds”. As for “NBS1 (endogenous) (from UniProt O60934 1-754)”, the binding result was “binds”.

B1: POLD3 (endogenous) (protein, UniProt Q15054 1-466)
chain: MADQLYLENIDEFVTDQNKIVTYKWLSYTLGVHVNQAKQMLYDYVERKRKENSGAQLHVTYLVSGSLIQNGHSCHKVAVVREDKLEAVKSKLAVTASIHVYSIQKAMLKDSGPLFNTDYDILKSNLQNCSKFSAIQCAAAVPRAPAESSSSSKKFEQSHLHMSSETQANNELTTNGHGPPASKQVSQQPKGIMGMFASKAAAKTQETNKETKTEAKEVTNASAAGNKAPGKGNMMSNFFGKAAMNKFKVNLDSEQAVKEEKIVEQPTVSVTEPKLATPAGLKKSSKKAEPVKVLQKEKKRGKRVALSDDETKETENMRKKRRRIKLPESDSSEDEVFPDSPGAYEAESPSPPPPPSPPLEPVPKTEPEPPSVKSSSGENKRKRKRVLKSKTYLDGEGCIVTEKVYESESCTDSEEELNMKTSSVHRPPAMTVKKEPREERKGPKKGTAALGKANRQVSITGFFQRK
Consider B1, for which the binding result is “binds”.
